Patent publication US10287337B2 (priority 2015, dated 2019)
Some peptides are written in HELM: one residue between dots, names in brackets for other building blocks, links after the first $.

Test: general procedure: Fmoc solid-phase peptide synthesis; 4-(2',4'-dimethoxyphenyl-Fmoc-aminomethyl)-phenoxy resin; HBTU, DIEA
Conditions: whole synthesis, scale 0.52 mmol

Work on “PEPTIDE1{N.F.V.P.T.N.V.G.P.F.A.F.[am]}$$$$V2.0” yielded a crude mass of 0.25 g and a crude yield of 41% yield.
